Experimental data reported in publication doi:10.1101/2021.06.28.450115.
Results are given in words; binding and its absence hold for the method and conditions named. Binding seen in cells or lysates may run through a third protein. Some entries that bind do so weakly or less than the wild type.

The chains behind the UniProt entries cited, without tags or fusion partners. Residues count along the entry.
UniProt P38646, residues 47-679: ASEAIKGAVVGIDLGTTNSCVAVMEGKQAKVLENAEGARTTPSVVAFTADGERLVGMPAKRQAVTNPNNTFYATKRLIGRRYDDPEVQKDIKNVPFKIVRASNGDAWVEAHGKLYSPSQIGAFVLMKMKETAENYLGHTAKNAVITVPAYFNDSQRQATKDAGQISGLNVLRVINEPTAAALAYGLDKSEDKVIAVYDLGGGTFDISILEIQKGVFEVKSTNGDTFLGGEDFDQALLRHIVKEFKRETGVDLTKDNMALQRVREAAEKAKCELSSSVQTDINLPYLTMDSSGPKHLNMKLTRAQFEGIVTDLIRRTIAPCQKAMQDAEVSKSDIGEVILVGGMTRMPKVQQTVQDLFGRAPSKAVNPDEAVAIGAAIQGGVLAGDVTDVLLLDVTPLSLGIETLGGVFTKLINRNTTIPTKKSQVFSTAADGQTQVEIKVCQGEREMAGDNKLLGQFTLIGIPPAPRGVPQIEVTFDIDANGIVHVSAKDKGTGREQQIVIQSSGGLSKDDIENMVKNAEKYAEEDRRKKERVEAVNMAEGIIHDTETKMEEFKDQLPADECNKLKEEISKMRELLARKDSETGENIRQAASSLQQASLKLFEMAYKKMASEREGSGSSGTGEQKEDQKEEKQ

Target: T1, DAB2IP (endogenous, SW48) (human (endogenous in SW48)) (UniProt Q5VWQ8)
T1 sequence: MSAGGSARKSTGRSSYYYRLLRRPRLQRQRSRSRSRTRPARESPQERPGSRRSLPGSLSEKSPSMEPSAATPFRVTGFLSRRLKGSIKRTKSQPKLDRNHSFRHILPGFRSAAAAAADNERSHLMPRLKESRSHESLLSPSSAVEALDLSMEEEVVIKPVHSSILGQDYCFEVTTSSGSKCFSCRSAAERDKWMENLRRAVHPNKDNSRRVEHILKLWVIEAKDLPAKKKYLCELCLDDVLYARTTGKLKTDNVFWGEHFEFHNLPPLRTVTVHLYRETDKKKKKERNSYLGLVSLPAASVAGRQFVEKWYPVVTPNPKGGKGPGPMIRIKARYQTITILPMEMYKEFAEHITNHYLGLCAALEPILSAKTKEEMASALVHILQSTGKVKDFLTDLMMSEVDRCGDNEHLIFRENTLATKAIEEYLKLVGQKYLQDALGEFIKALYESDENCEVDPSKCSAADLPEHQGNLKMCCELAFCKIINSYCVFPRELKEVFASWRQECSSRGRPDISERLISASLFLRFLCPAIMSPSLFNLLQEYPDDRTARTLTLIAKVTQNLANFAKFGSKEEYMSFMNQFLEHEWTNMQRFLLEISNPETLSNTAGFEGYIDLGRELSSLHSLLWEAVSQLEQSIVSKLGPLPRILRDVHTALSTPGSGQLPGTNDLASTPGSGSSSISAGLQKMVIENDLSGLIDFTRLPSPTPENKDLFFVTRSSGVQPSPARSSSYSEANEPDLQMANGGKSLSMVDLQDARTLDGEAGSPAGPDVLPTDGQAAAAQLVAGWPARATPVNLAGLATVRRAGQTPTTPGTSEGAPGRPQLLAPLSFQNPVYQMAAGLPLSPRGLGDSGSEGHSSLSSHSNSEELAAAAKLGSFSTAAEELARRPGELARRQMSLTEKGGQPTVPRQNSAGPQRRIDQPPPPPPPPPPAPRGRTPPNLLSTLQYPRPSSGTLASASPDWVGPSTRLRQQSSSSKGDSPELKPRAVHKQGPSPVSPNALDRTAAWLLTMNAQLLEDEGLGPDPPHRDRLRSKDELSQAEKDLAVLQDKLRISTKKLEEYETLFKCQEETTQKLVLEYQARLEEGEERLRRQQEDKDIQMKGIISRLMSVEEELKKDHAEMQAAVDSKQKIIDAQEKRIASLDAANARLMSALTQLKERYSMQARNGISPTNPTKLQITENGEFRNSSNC
Assay: co-IP

GRP75 (endogenous, SW48) (from UniProt P38646 47-679)
binding: binds

p53 (endogenous, wild type, SW48) (from UniProt P04637 1-393)
binding: no binding
